Data as given in article PMC2262068.
A negative result means that nothing was seen under these conditions. Where a protein sequence is shown, tags need not be part of it. Construct, isoform or probe ends are uncertain for at least one entry.

target: T1, ArcA-P (His6-ArcA phosphorylated with carbamoyl phosphate) (Shewanella oneidensis MR-1) (UniProt Q8EAB9); assay: EMSA; details: ArcA phosphorylated with carbamoyl phosphate; 100 mM Tris/HCl pH 7.4, 20 mM KCl, 10 mM MgCl2, 2 mM DTT, 0.2 ug/ul poly(dI-dC), 10% glycerol, 15 C, 60 min; 2-5 nM 33P-labeled probe; recombinant protein; protein details: N-terminal His6 (pDEST17); label: 33P; only the motif is given
T1 sequence (looked up, limits assumed): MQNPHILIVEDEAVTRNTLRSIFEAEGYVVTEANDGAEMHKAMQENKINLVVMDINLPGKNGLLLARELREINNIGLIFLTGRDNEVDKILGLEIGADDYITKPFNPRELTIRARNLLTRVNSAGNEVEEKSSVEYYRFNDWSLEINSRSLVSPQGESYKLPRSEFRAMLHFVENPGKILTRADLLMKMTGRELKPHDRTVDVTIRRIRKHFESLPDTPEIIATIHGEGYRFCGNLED

Sequence | binding result
GAAAATTTTTTGTTA (double strand) [so0806] | binds
GTAAAATCGATGTTA (double strand) [so3659] | no binding
GTAAATTAATTGTTA (double strand) [so3106 (aprE)] | binds
GTAATTTAAATGTTA (double strand) [so0866] | binds
GTGAACAGAATGTTA (double strand) [so0266-9 (ccmF-1)] | binds
GTTAAAAAAATGTGA (double strand) [so4245 (argA)] | binds
GTTAAATAATTGTTA (double strand) [so1661] | binds
GTTAACAAAGCGATA (double strand) [so1307 (aqpZ)] | binds
GTTAACTCAATGTTA (double strand) [so3507] | binds
GTTAAGTAATTGTAA (double strand) [so1944] | binds
GTTAATAAAATGTTT (double strand) [so1427-30] | binds
GTTAATTAAATGTCA (double strand) [so2099-5 (hoxK)] | binds
GTTAATTAAATTATA (double strand) [so3099] | binds
GTTAATTAATTGTTG (double strand) [so3565 (cpdB)] | binds
GTTAATTGATTGTAA (double strand) [so3855 (sfcA)] | binds
GTTAATTTGATGTTA (double strand) [so1821] | binds
GTTACTTTATTGTTA (double strand) [so1623 (ptsG)] | binds
GTTATTCAAATGTAA (double strand) [so2727] | binds
GTTGAAAAAATGTAA (double strand) [so2706 (astB)] | binds
TTTAAAAATATGTTA (double strand) [so0756 (aroG)] | binds

same assay, conditions: EMSA: 100 mM Tris/HCl pH 7.4, 20 mM KCl, 10 mM MgCl2, 2 mM DTT, 0.2 ug/ul poly(dI-dC), 10% glycerol, 15 C, 60 min, ~2-5 nM probe; recombinant protein; protein details: N-terminal His6 (pDEST17); label: 33P; probe letters rebuilt from the primers and the genome

Sequence | binding result
CGTTACGCTTATCATCCTGCTTTTACCCTTTGATGGTTTGTTGACACCTCTTTGCAAACTACACGATAGCAGTAACAAAATACCCGACTGAGCGTCACAGATTTAAAGCGTGAGATAACTCACGGGGTGAACATCAACTCTTAGAAGATGATCACAAAAACAAGGTAAAAAACCAAACAAAGGTAAAACCAATTAACCATTATATTTCATAGCTTTATACTAAATATCGAAACGAGTGGTTTGCATTTGCGTACAACAAAATGCTGACCCAATAACGCCTTGTCAATGCAGGAATAAAAGCCATTTTTATCTAAACGTGACGATAGAAACCCATTTACACAACCAGAGTTAAAAACGGCTTTGTTATGGTAATTTCTCGCCAAATCCTGCCGCTTAAGATGGTTTGGGTATACAATAGCGCGATATTTTTTAACCCTAGCCACAGGATTTACCCCATGCCTTGGATCCAACTCCGCATTAACACTAACAGTGATGATGCTGAAACCATCAGCGACTTACTCATGGAAGAAGGCGCAGTCTCTATTACTTTTGAAGATGGTAAAGACACCCCGATCTTTGAACCTAAACTG (double strand) [so0396 (frdC) promoter] | no binding
CTAACAGATAAGCTTGCGGCAACTTTTAATGATTTCATCGTTAATTTCCTTTTTACTTTAAAAAGCTTTGGATACAACAATGCCTATACCTAATTAAATATATTAATGGCATTAAAATTAGATATGGCTATTCCGCGTGCAGATATGATGAGGCAATAAGTCGCTTTAGAATAAAATAAATAGATTTATTCCAAGTGAGTGACTTAGCCGCAGTTTTACTGCACTAACAAAAATGCTTTGATTTGAATGCGAGACAATAAGCCTTGTAAAACAGTAAAGTAAGTGCATAAGCCTATAATGGCAATACCACTTTTGACCTGTTAATTGGCCTACTACCTACGCGAAGATTAGCGAAGGAAGATAAATGAATGGTCGAAATAGTCACGTTGGCTAGGCATCATGATATGTCTAGTACGTCGGATATGTGCCATGATCTTAGATTTCCTCTTCATATACAACTCCATTATGAAAGTAGAGAAAATTATTGGTTTTTATTACGGGGTGGATTTTATCTGTGTGTTATCAATAAAAATATGATCC (double strand) [so0314 (speF) promoter] | no binding
TAAATCCTGAGATTGGCCCACATTTATCCGCCGAGCGTGTTTATCACGATAATGCTTGGCTGCTGTACGCCTTATTGCTGCCCGCTGTGGTGATCCACGCCATGATTGGTTTGTACCGTGTGGCGGTTAAGTGGGGCATAACGGCTCAGCGTTCAGGTTTACGTAAACTCGCTAAGGTTTTGATTATCTATTTGTTGTGCCTTGGTAGCGCCAGCTTAGTTGCTTATATGCTTATCGGCAGCGAGTTGAGCATTCCTGTGCAGCCCTACGTGCCCCAGTGATTTGATTGCCAATCCTGCTGCGTTGCCCTGTAATGGATCGTCTCGGCAGGATTTTGTTTAGCTGCGACTCGTTTTAATTTGTTTTACCGCTAATAGTTAAGCATTCGATGAATTATTCACCCTCTAGTTGATCTAACTCAGGTTTGTTGTTGGATTTGTGAGCGATATTAATTTTCGAGGATAGGACTTAATCACTCTGGCTCGATGAAGCTGGTGGCGCGAGGCGAAAGCAATGGCAATCAAACTAAG (double strand) [so0397-9 (fdrC) promoter] | no binding
TTTACGATATGCTTCTAGCACGGCAACATTCCTCTTTGTTTGGCGCTCTAACAACGAAACTGCACGTCTTCTCAATTGAAGCTGACAGTCCGACATGATCGACCCGTATTTCCGGCCAGCAGTATACTACAGCTTTGCAAAAGTATGAATCAGGTCACACTCGGCAAAAGACGAAATAAGGGCTAAATCCGGAGGTGCAACTCAACTTACGGCATGAATAAAACAATGGAAATTAGACAATAGTTTGAAAACAGATAAAAAACCATAATCTACAGATAGTTAATATAAGTTCATCAATTTAAAATCGAACGAACATTTTTCTGATAACGAAATGCTTTTCACAGTAAATATTTCTCAACTTTGTGTATTTAGGCTTTGAAGATAGCGGGCTTAAACTTACACTCAAGCTCCAATAACCCATTTCCCGTCCTTTGGAGTAGTAATGACATCCCTTAGCATTCAAGCCGTCATTTTTGATATGGATGGCGTTTTAATCGATTCTGAACCCCTATGGCAGCGGGTTGAATATGAAGTCTTATCCGCCCTCGGTGTGCCTGTCACTCTCGAAAC (double strand) [so0432 (acnB) promoter] | no binding

target: T2, ArcA (His6-ArcA, unphosphorylated) (Shewanella oneidensis MR-1) (UniProt Q8EAB9); assay: EMSA; details: unphosphorylated ArcA; 100 mM Tris/HCl pH 7.4, 20 mM KCl, 10 mM MgCl2, 2 mM DTT, 0.2 ug/ul poly(dI-dC), 10% glycerol, 15 C, 60 min; 2-5 nM 33P-labeled probe; recombinant protein; protein details: N-terminal His6 (pDEST17); label: 33P; only the motif is given
T2 sequence (looked up, limits assumed): T1 sequence (looked up, limits assumed)

Sequence | binding result
GTTAAATAATTGTTA (double strand) [so1661] | no binding
